For experiment [1], the target named is human heat shock factor 1 (HSF1), his6-tagged, purified recombinant (human) (UniProt Q00613). The experiment can be described thus: light scattering at 350 nm; as a1 but with 1 mM DTT in the reaction; HSF1 (2 uM) with AZD or heat shock; both purified.
Experiment [2] deals with T1, human heat shock factor 1 (HSF1), his6-tagged, purified recombinant (human), Q00613.
T1 chain: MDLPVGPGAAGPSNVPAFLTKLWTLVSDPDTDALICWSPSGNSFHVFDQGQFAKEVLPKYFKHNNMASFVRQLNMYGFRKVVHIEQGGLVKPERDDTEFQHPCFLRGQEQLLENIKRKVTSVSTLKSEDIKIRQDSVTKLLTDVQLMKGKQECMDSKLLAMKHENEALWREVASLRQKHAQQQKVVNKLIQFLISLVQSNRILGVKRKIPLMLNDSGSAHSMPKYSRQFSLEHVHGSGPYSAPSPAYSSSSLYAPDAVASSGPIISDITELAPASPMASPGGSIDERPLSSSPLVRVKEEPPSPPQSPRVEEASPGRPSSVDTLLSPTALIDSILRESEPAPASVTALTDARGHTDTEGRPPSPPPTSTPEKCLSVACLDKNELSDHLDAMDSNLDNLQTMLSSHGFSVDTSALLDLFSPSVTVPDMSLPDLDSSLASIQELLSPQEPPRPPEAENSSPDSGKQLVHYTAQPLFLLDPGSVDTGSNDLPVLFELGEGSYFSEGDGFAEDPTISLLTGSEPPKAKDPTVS
The experiment can be described thus: dynamic light scattering; purified HSF1 with AZD added; shift of the population to higher molecular weight species (Figure S7); both purified. To be noted: remark: other sources report otherwise.

In experiment [3] the target is T1, human heat shock factor 1 (HSF1), …. The experiment can be described thus: light scattering at 350 nm; HSF1 (2 uM) in a cell-free system with AZD (4 and 8 uM) or heat shock; kinetics of multimerization followed in a spectrophotometer; both purified. The following applies: remark: other sources report otherwise.

Results on two molecules are retold here after paper PMC5346638, “Azadiradione ameliorates polyglutamine expansion disease in Drosophila by potentiating DNA binding activity of heat shock factor 1” (Oncotarget, 2016).

Results are given in words; binding and its absence hold for the method and conditions named. Some entries that bind do so weakly or less than the wild type. For part of these data: Sequences can lack the tags named with a protein.

For “human heat shock factor 1 (HSF1), his6-tagged, purified recombinant (from UniProt Q00613 1-529)”, in experiment [1], the binding result was “no binding (condition: with 1 mM DTT)”.

B1: human heat shock factor 1 (HSF1), his6-tagged, purified recombinant, Q00613 1-529 (protein)
chain: MDLPVGPGAAGPSNVPAFLTKLWTLVSDPDTDALICWSPSGNSFHVFDQGQFAKEVLPKYFKHNNMASFVRQLNMYGFRKVVHIEQGGLVKPERDDTEFQHPCFLRGQEQLLENIKRKVTSVSTLKSEDIKIRQDSVTKLLTDVQLMKGKQECMDSKLLAMKHENEALWREVASLRQKHAQQQKVVNKLIQFLISLVQSNRILGVKRKIPLMLNDSGSAHSMPKYSRQFSLEHVHGSGPYSAPSPAYSSSSLYAPDAVASSGPIISDITELAPASPMASPGGSIDERPLSSSPLVRVKEEPPSPPQSPRVEEASPGRPSSVDTLLSPTALIDSILRESEPAPASVTALTDARGHTDTEGRPPSPPPTSTPEKCLSVACLDKNELSDHLDAMDSNLDNLQTMLSSHGFSVDTSALLDLFSPSVTVPDMSLPDLDSSLASIQELLSPQEPPRPPEAENSSPDSGKQLVHYTAQPLFLLDPGSVDTGSNDLPVLFELGEGSYFSEGDGFAEDPTISLLTGSEPPKAKDPTVS
On to B1, for which the binding entry in experiment [2] and in experiment [3] was “binds” in each case.
